In US20250073350A1:
No constants are given. Whether binding was seen depends on the method and setting. Some entries that bind do so weakly or less than the wild type.

B1: MmPNMA3, bacterially produced (protein, mouse, UniProt Q8JZW8 1-466, looked up)
chain: MPLNLLQDWCRGEHLNTQRSMLILGIPEDCSEDEFEETLHEALKHLGRYRIIGRMFRREENAQAFLVELARDFDYALVPREIEGKGGPWEVVVKPPHSDDEFLNRLNHFLEEERRTVSDMNRVLGTHSNHSPTKTTISADFWVWAQTLGAVMQPLLEQMLYRELRVFSGNTISIPGLLAFDSWLEHTTEMLQMWQVPEVEKRRRLMECLRGPALQVVNVLRANNAAITVKECLEALRQVFGSVDNRKIAQLKFCKAYQEPGEKVSSFVVRLETLLQKALEKNAISRKNVNQTRLKRILGGAILSAKLREKLKMLKQRRRPPGFLALVKLFREEEEEWEATRGSERSCYEGLELGPSPSNIGSEERELFVPAFGSVLEERPYQGSRRRRHRRRGQHRKGGVPRDDSQGTRKQNYDTFCYSCGEDGHIRVHCFNPSNRTLVKQKRQAAMEKGNRSWAWEKSHPKPKTK
B2: MmPEG10, bacterially produced (protein, mouse, UniProt Q7TN75 1-958, looked up)
chain: MAAAGGSSNCPPPPPPPPPNNNNNNNTPKSPGVPDAEDDDERRHDELPEDINNFDEDMNRQFENMNLLDQVELLAQSYSLLDHLDDFDDDDEDDDFDPEPDQDELPEYSDDDDLELQGAAAAPIPNFFSDDDCLEDLPEKFDGNPDMLGPFMYQCQLFMEKSTRDFSVDRIRVCFVTSMLIGRAARWATAKLQRCTYLMHNYTAFMMELKHVFEDPQRREAAKRKIRRLRQGPGPVVDYSNAFQMIAQDLDWTEPALMDQFQEGLNPDIRAELSRQEAPKTLAALITACIHIERRLARDAAAKPDPSPRALVMPPNSQTDPTEPVGGARMRLSKEEKERRRKMNLCLYCGNGGHFADTCPAKASKNSPPGKLPGPAVGGPSATGPERIRSPPSEASTQHLQVMLQIHMPGRPTLFVRAMIDSGASGNFIDQDFVIQNAIPLRIKDWPVMVEAIDGHPIASGPIILETHHLIVDLGDHREILSFDVTQSPFFPIVLGIRWLSTHDPHITWSTRSIVFNSDYCRLRCRMFAQIPSNLLFTVPQPNLHPYLLHHVHPHVHPHMHQHLHQHLHQFLHPDPHQYPHPDPHYHHHQQADMQHQLQQYLYQYLYYHLYPVMHHHLPPDQHEHLHEYLHQYLHQYLHQFLHHHLHPDLHQYLYQYLHNHMNPDPHHHPHPDPPQDPHHPPHQDPHQHPDPHQDPPHQDPHQDAHQDPHMDPHLHQHQHPQPQPHPQQHPNHPQQPPFFYHMAGFRIYHPVRYYYIQNVYTPVDEHVYPGHRVVDPNIEMIPGAHSLPSGHLYSMSESEMNALRNFVDRNVKDGLMTPTVAPNGAQVLQVKRGWKLQVTYNCRAPQSGTIQNQYLRMSLPNMGDPAHLASYGEFVQVPGYPYPAYVYYTSPHMMTAWYPVGRDVHGRIIVVPVVITWSQNTNRQPPVPQYPPPQPPPPPPPPPPPPPPPPASSCSAA

Experiments:
[1] = target: MmPNMA3, bacterially produced (mouse) (UniProt Q8JZW8); test: self-association; size exclusion and electron microscopy of protein produced in E. coli
[2] = target: MmPEG10, bacterially produced (mouse) (UniProt Q7TN75); test: as above

| Binder | binding [1] | binding [2] |
| --- | --- | --- |
| B1 | binds |  |
| B2 |  | binds |
